Reference: patent publication US10702607B2, “Abuse-deterrent pharmaceutical compositions” (priority 2016, dated 2020)

Legend:
[1] = system: horseradish peroxidase and laccase (MtL), with glucose oxidase; assay: Inactivation of oxycodone with enzyme system peroxidase/laccase (oxygen measurement, HPLC-MS); assay type: biochemical, Myceliophthora thermophila (laccase)
laccase = assay: Laccase mediator system (LMS) with oxycodone: HPLC-MS/TOF measurement; settings: mediators 2 mM, vanillin also 6 mM

COc1ccc2c3c1O[C@H]1C(=O)CC[C@@]4(O)[C@@H](C2)N(C)CC[C@]314 [oxycodone, (5R,9R,13S,14S)-4,5α-epoxy-14-hydroxy-3-methoxy-17-methylmorphinan-6-one]
product of the enzymatic conversion of oxycodone ([1]; HPLC-MS measurement of reaction rate): converted to a product which precipitated | enzymatic conversion of oxycodone by HRP and laccase ([1]; HRP 10 U/ml, glucose oxidase 20 U/ml, laccase 25 U/ml, oxycodone 10 mg/ml, glucose 10 mg/ml, distilled water, room temperature, oxygen consumption and HPLC-MS): successfully converted | oxycodone concentration in the laccase mediator system (laccase): decrease in oxycodone concentration was confirmed
